PubChem BioAssay AID504467 (National Center for Advancing Translational Sciences (NCATS), 2011)
In all, about 330,000 compounds went through this assay and about 7,700 (2.3%) were called active. Inconclusive means that the source gave no clear call. Such entries were picked first, then a sample of the others. Calls come from the whole dose curve; as a rule, active = well fitted inhibition curve with a large enough effect; inconclusive = small, poorly fitted or top-dose-only effect, or effect the other way; inactive = flat fitted curve, though single readings scatter. Where the call is inconclusive, the potency comes from a doubtful curve fit.

Assay: qHTS screen for small molecules that inhibit ELG1-dependent DNA repair in human embryonic kidney (HEK293T) cells expressing luciferase-tagged ELG1; note: nearly all actives have a fitted effect of over 55% in size
Conditions: HEK293T ELG1-luciferase reporter, luminescence, 16 h, DNA damage induced by 5-fluorouridine; series mostly up to 46.1 µM
Method in brief: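 Luminescence from the luciferase reporter, measured 30 min after ONE-Glo reagent at room temperature, was the read-out. Beforehand, 2,000 cells per well were exposed for 16 hr at 37 °C to 5-fluorouridine together with compound or vehicle.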
Potency is the fitted concentration of half-maximal effect.

SMILES	Potency
c1ccc(-c2cc(-c3nnc4sc(-c5ccccn5)nn34)[nH]n2)cc1	inconclusive: 16.4 µM [inhibitor, single point]
COc1ccc(-c2noc(CCC(=O)NC3CCN(Cc4ccccc4)CC3)n2)cc1	inactive
CCC(C)NC(=O)c1ccccc1-c1nc2ccccc2[nH]1 (configuration not stated)	inactive
S=C(NCCc1ccccc1)Nc1ccc(Nc2ccccc2)cc1	inconclusive: 23.1 µM [inhibitor, single point]
Cc1ccc(S(=O)(=O)/N=C(/Nc2cccc(O)c2)c2ccccc2)cc1	inactive
O=C(COc1ccccc1Br)c1ccc(O)cc1O	inconclusive: 16.4 µM [activator, single point]
O=C(Nc1ccc2c(c1)OCCO2)c1ccncc1	inconclusive: 8.2 µM [activator, single point]
Cc1cccc(NC(=O)CN2C(=O)S/C(=C\c3ccccn3)C2=O)c1	inconclusive: 16.4 µM [activator, single point]
C=CCn1c(NC(=O)c2ccco2)c(S(=O)(=O)c2ccccc2)c2nc3ccccc3nc21	inactive
COc1cccc(CN(C)CC(=O)Nc2ccccc2N2CCOCC2)c1OC	inactive
CCc1ccc([C@@H]2CC=C(C(=O)O)[C@H](c3ccc(C)cc3)N2S(=O)(=O)c2ccc(C)cc2)cc1	inactive
COc1cc(C#Cc2c(-c3cncn3C)n(C)c3ccc(-c4ccc(OC)c(OC)c4)cc23)cc(OC)c1	active: 7.3 µM
COCCn1c(SCC(=O)Nc2cc(Cl)ccc2OC)nc2c(c1=O)SC(C)C2 (configuration not stated)	active: 25.9 µM
O=C(Nc1ccc(-c2nc3ccccc3s2)cc1)c1cc(-n2cnnc2)ccc1Cl	inconclusive: 20 µM [inhibitor, single point]
C#CCN1C(=O)S/C(=C\c2ccc(-c3ccc(Cl)c(C(=O)O)c3)o2)C1=O	inconclusive: 16.4 µM [activator, partial curve]
Nc1c(C(=O)CSc2ncccn2)c(=O)[nH]c(=O)n1C1CC1	inconclusive: 11.6 µM [activator, partial curve, poor fit]
O=C(NCc1ccccn1)C(=O)Nc1ccccc1	inconclusive: 20.6 µM [activator, partial curve]
CN(C)c1ccc(NC(=O)CSc2nnc(-c3cccs3)n2Cc2ccco2)cc1	inconclusive: 23.1 µM [inhibitor, partial curve]
CCCn1c(=O)c2ccccc2n2c(SCc3nc4ccccc4s3)nnc12	inconclusive: 5.8 µM [activator, partial curve]
O=C(CN1C(=O)/C(=C/c2ccc(C(F)(F)F)cc2)Sc2ccccc21)NCCCN1CCOCC1	inconclusive: 29.1 µM [activator, partial curve, poor fit]
CC(C)CC1NC(=O)N(CC(=O)N2CCN(S(=O)(=O)c3ccc4ccccc4c3)CC2)C1=O (configuration not stated)	inconclusive: 29.1 µM [inhibitor, single point]
O=C(/C=C/c1ccc(Cl)cc1Cl)OCC(=O)N1CCCC1	inconclusive: 16.4 µM [activator, single point]
O=C(O)CCC(=O)Nc1ccc(N2CCCCCC2)cc1	inconclusive: 11.6 µM [activator, partial curve, poor fit]
CN(C)CCCN(CCCN(C)C)C(=S)Nc1ccc(S(=O)(=O)N2CCOCC2)cc1	inconclusive: 25.9 µM [activator, single point]

Quoted from the listing.
Value for Cc1ccc(S(=O)(=O)/N=C(/Nc2cccc(O)c2)c2ccccc2)cc1 under Potency: inactive
Value for C=CCn1c(NC(=O)c2ccco2)c(S(=O)(=O)c2ccccc2)c2nc3ccccc3nc21 under Potency: inactive

Next structures follow:

SMILES	Potency
c1ccc(Nc2nc(N3CCOCC3)c3ccccc3n2)cc1	inconclusive: 29.1 µM [inhibitor, single point]
NC(=O)c1ccsc1NC(=O)COC(=O)c1cc(=O)[nH]c2ccccc12	inconclusive: 5.62 µM [inhibitor, single point]
CC(C)c1ccc(NC(=O)C2CCC(CNC(=O)[C@@H]3Cc4ccccc4CN3)CC2)cc1 (some centres not stated)	inconclusive: 20.6 µM [activator, single point]
COc1ccccc1OCC(=O)OC/C(O)=C(\C#N)c1nc2ccccc2[nH]1	inconclusive: 20.6 µM [activator, single point]
CN(CCc1cnn(C)c1)C(=O)CCc1nnc(CCCc2ccccc2)o1	inconclusive: 18.3 µM [activator, single point]
CC(C)OCC(O)CCc1n[nH]c(=S)n1-c1ccccc1 (configuration not stated)	inactive
O=C(CCC(=O)c1ccc(Cl)s1)Nc1ncccc1O	inconclusive: 23.1 µM [activator, partial curve]
COc1ccc2c(c1OC)C(=O)OC2N1C(=O)CC[C@H]1C(=O)Nc1ccc(F)cc1F (some centres not stated)	inactive
Cc1ccc(NC(=S)NNC(=O)c2cccc([N+](=O)[O-])c2)cc1Cl	inconclusive: 29.1 µM [inhibitor, single point]
FC(F)(F)c1cccc(-c2ccc(-c3csnn3)o2)c1	inconclusive: 18.4 µM [activator, single point]
CSc1cccc(NC(N)=S)c1	inactive
O=C(COC(=O)C1(c2ccccc2F)CCCC1)NCc1ccc2c(c1)OCO2	inconclusive: 20.6 µM [inhibitor, single point]
C1CCCC(NC2=NCCO2)CCC1	inactive
CC1=NN(c2ccccc2)C(=O)C1C(=O)c1ccc([N+](=O)[O-])cc1 (configuration not stated)	inconclusive: 16.4 µM [inhibitor, single point]
CC[C@@H]1CC=C[C@H]2[C@H]1C(=O)N(Cc1ccccc1)[C@H]2c1ccc(OC)c(Cl)c1	inactive
C=CCn1c(SCC(=O)N2CCN(C(=O)c3ccco3)CC2)nc2sc(CC)cc2c1=O	inconclusive: 18.4 µM [inhibitor, single point]
COc1ccc(OC(=O)/C=C/c2ccc([N+](=O)[O-])cc2)cc1	inactive
Cc1c(C(=O)N(Cc2ccc(N(C)C)cc2)CC2CCCO2)oc2ccccc12 (configuration not stated)	inconclusive: 20.6 µM [inhibitor, single point]
C=Cc1ncc(OC)c2c1[nH]c1ccccc12	inactive
C=CCn1c(-c2ccc([N+](=O)[O-])cc2)n[nH]c1=S	inactive
CSc1nc(N)nc2c1ncn2CC(=O)N[C@H](C)c1cccc2ccccc12	inconclusive: 20.6 µM [inhibitor, single point]
COc1cc(/C=N/NC(=O)c2sc(N)c(C#N)c2C)ccc1O	inactive
O=C(CSc1nc(Nc2ccccc2)nc(N2CCOCC2)n1)Nc1ccc([N+](=O)[O-])cc1	inconclusive: 18.4 µM [inhibitor, partial curve]
CCn1c(/C=C/N(C(C)=O)c2ccccc2)[n+](CC)c2ccc(Cl)cc21	inactive

2 records picked at random from those above:
SMILES	Potency
Cc1cccc(NC(=O)CN2C(=O)S/C(=C\c3ccccn3)C2=O)c1	inconclusive: 16.4 µM [activator, single point]
COc1ccccc1OCC(=O)OC/C(O)=C(\C#N)c1nc2ccccc2[nH]1	inconclusive: 20.6 µM [activator, single point]

The list goes on.

SMILES	Potency
COc1ccc(S(=O)(=O)N(C(=O)C(C)C)c2ccc3oc(=O)sc3c2)cc1	inconclusive: 29.1 µM [inhibitor, partial curve, poor fit]
O=C(C[C@@H]1C/C=C\C[C@@H](NC(=O)OCC2c3ccccc3-c3ccccc32)C(=O)OC[C@@H](Cc2ccccc2)NC1=O)NCCO	inactive
CC(C)N(C(=O)COC(=O)c1cccnc1Cl)c1ccccc1	inactive
O=C(c1cccc(F)c1)N1CCN(Cc2c[nH]c3ccccc23)CC1	inconclusive: 29.1 µM [inhibitor, single point]
CS(=O)(=O)N1CCc2cc(C(=O)OCC(=O)c3ccccc3)ccc21	inconclusive: 16.4 µM [activator, partial curve]
COc1ccc(Cl)c(Cn2c(NCCCN(C)C)nc3c2c(=O)n(C)c(=O)n3C)c1	inactive
CCN(CC)S(=O)(=O)c1ccc(NC(=O)CCNC(=O)c2ccccc2)cc1	inactive
CCN1CCN(S(=O)(=O)c2ccc(Cl)c(C(=O)N(C)Cc3cccc(Cl)c3Cl)c2)CC1	inconclusive: 16.4 µM [inhibitor, single point]
CC(C)(C)c1ccc(S(=O)(=O)NCC(=O)Nc2sc3c(c2C(N)=O)CCCC3)cc1	inconclusive: 23.1 µM [inhibitor, partial curve, poor fit]
Oc1ccc2ccccc2c1CNc1ccccn1	inactive
COc1ccc(C(=O)NCCc2nnc3ccc(SCC(=O)Nc4ccccc4)nn23)cc1	inconclusive: 2.59 µM [activator, partial curve]
Cc1ccc(C(=O)NC(=S)NNC(=O)CCN2CCOCC2)cc1	inconclusive: 10.3 µM [inhibitor, partial curve, poor fit]
COCCNC(=O)C1CC(c2cccc(F)c2)=NO1 (configuration not stated)	inactive
Cc1c(Cl)cccc1NC(=O)NCc1ccccn1	inactive
C/C(C/C(C)=C1/SC(=S)NC1=O)=C1\SC(=S)NC1=O	inactive
CCC(O)(c1ccc(OC)cc1)C(CN1CCOCC1)c1ccccc1 (configuration not stated)	inactive
O=C1NC(=O)c2cc(Br)cc3cccc1c23	inactive
Cc1ccc(-c2nc(C3CCN(S(=O)(=O)c4ccc(C(C)(C)C)cc4)CC3)no2)cc1	inactive
Cc1sc2ncn(CC(=O)N3CCN(c4ccc(F)cc4)CC3)c(=O)c2c1S(=O)(=O)N1CCOCC1	inconclusive: 32.6 µM [activator, partial curve, poor fit]
CCCCn1c(N)c(N(CC(C)C)C(=O)c2ccc(F)c(S(=O)(=O)N3CCOCC3)c2)c(=O)[nH]c1=O	inactive
Nc1ccc(Br)c2cccnc12	inactive
CC(C)c1ccc(NC(=O)NCc2cccnc2)cc1	inconclusive: 32.6 µM [activator, partial curve, poor fit]
COc1ccc(C(O)(c2ccccc2OC)C(CN2CCOCC2)c2ccccc2)cc1 (configuration not stated)	inactive
CC(C)(C)c1nnc(NC(=O)c2cccnc2)s1	inconclusive: 29.1 µM [activator, single point]
